Data: PubChem BioAssay AID192 (DTP/NCI, 2004)
The list does not hold the whole screen: its compounds were picked by chemical class. Not every dose and run of a compound is shown. T/C is the treated group as % of the vehicle group. Some doses have a count of surviving animals in place of a T/C: the source files T/C as zero there, which appears to mark a toxic dose or a test without result, not a measured value. Some doses without a T/C left all or most animals alive at the check, yet need not have been tolerated: survival well below the control is almost never listed, so the zero probably covers shortened survival too. Counts of survivors are from the toxicity check (mostly the fifth day) where no day follows; animals may have died later. Schedule codes are those of the source, taken here to give the interval after Q, in days (D) or hours (H), and the number of doses after X. Where survival is the endpoint, this PubChem deposit counts one and a half times the control or more as active, and values a quarter to a half above the control carry no call in these data; other NCI protocols may use other cut-offs. Some entries were tested several times; their values stand side by side, smallest first. Some T/C values are followed by the survivors on the day toxicity was checked, most often the fifth; where neither a count nor a note follows, no animal had died by that day.

Test system: BDF1 mice, B16 melanoma ip, median survival T/C
Assay: NCI In Vivo Anticancer Drug Screen. Data for tumor model B16 Melanoma (intraperitoneal) in B6D2F1 (BDF1) mice
Settings: T/C endpoint: median survival time, higher T/C = longer survival
Outline: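 Each result divides a survival or tumor-size measurement in the compound-treated group by the same measurement in the vehicle group.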

**Q.** How did the T/C (dose: 25.0 mg/kg/injection, schedule: Q04DX003 (ip), vehicle: Klucel (hydroxypropylcellulose) (HPC)) turn out when Cc1ccc(CNCCCl)cc1 was run?
**A.** Its T/C is 94 % of control.

**Q.** What about the T/C (dose: 50.0 mg/kg/injection, schedule: Q04DX003 (ip), vehicle: Klucel (hydroxypropylcellulose) (HPC)) of the same molecule?
**A.** The T/C was 105 % of control.

**Q.** And the T/C (dose: 100.0 mg/kg/injection, schedule: Q04DX003 (ip), vehicle: Klucel (hydroxypropylcellulose) (HPC))?
**A.** The T/C was 94 % of control.

**Q.** And the T/C (dose: 200.0 mg/kg/injection, schedule: Q04DX003 (ip), vehicle: Klucel (hydroxypropylcellulose) (HPC))?
**A.** The T/C was 107 % of control.

**Q.** With N=C(N[N+](=O)[O-])N(CCN1CCN=C1N[N+](=O)[O-])N=O as the molecule, how does the T/C (dose: 25.0 mg/kg/injection, schedule: Q01DX009 (ip), vehicle: saline with Tween-80) read?
**A.** The T/C was 100 % of control.

**Q.** What about the T/C (dose: 50.0 mg/kg/injection, schedule: Q01DX009 (ip), vehicle: saline with Tween-80) of the same molecule?
**A.** The T/C was 98 % of control.

**Q.** And the T/C (dose: 100.0 mg/kg/injection, schedule: Q01DX009 (ip), vehicle: saline with Tween-80)?
**A.** Its T/C is 93 % of control.

**Q.** For O=NN1CCN/C1=N\[N+](=O)[O-], which T/C (dose: 50.0 mg/kg/injection, schedule: Q01DX017 (ip), vehicle: saline with Tween-80) is on record?
**A.** The T/C was 110 % of control.

**Q.** What about the T/C (dose: 50.0 mg/kg/injection, schedule: Q02DX009 (ip), vehicle: Klucel (hydroxypropylcellulose) (HPC)) of the same molecule?
**A.** The T/C was 118 % of control.

**Q.** And the T/C (dose: 50.0 mg/kg/injection, schedule: Q02DX009 (ip), vehicle: saline with Tween-80)?
**A.** The T/C was 110 and 115 % of control.

**Q.** What about the T/C (dose: 100.0 mg/kg/injection, schedule: Q01DX017 (ip), vehicle: saline with Tween-80) of the same molecule?
**A.** Its T/C is 118 % of control.

**Q.** And the T/C (dose: 100.0 mg/kg/injection, schedule: Q02DX009 (ip), vehicle: Klucel (hydroxypropylcellulose) (HPC))?
**A.** Its T/C is 123 % of control [9 of 10 alive].

**Q.** What about the T/C (dose: 100.0 mg/kg/injection, schedule: Q02DX009 (ip), vehicle: saline with Tween-80) of the same molecule?
**A.** Its T/C is 116 and 118 % of control.

**Q.** And the T/C (dose: 200.0 mg/kg/injection, schedule: Q01DX017 (ip), vehicle: saline with Tween-80)?
**A.** Its T/C is 122 % of control [9 of 10 alive].

**Q.** What about the T/C (dose: 200.0 mg/kg/injection, schedule: Q02DX009 (ip), vehicle: Klucel (hydroxypropylcellulose) (HPC)) of the same molecule?
**A.** Its T/C is 139 % of control.

**Q.** And the T/C (dose: 200.0 mg/kg/injection, schedule: Q02DX009 (ip), vehicle: saline with Tween-80)?
**A.** Its T/C is 122 [9 of 10 alive] and 125 % of control.

**Q.** And the T/C (dose: 400.0 mg/kg/injection, schedule: Q01DX017 (ip), vehicle: saline with Tween-80)?
**A.** The T/C was 139 % of control.

**Q.** And the survivor count (dose: 400.0 mg/kg/injection, schedule: Q02DX009 (ip), vehicle: Klucel (hydroxypropylcellulose) (HPC))?
**A.** Its survivor count is 7 of 10.

**Q.** And the T/C (dose: 400.0 mg/kg/injection, schedule: Q02DX009 (ip), vehicle: saline with Tween-80)?
**A.** Its T/C is 96 and 139 % of control.

**Q.** With O=P1(N(CCCl)CCCl)OCCCN1CCCl (centres undefined) as the molecule, how does the T/C (dose: 12.5 mg/kg/injection, schedule: Q01DX009 (ip), vehicle: saline) read?
**A.** Its T/C is 104 % of control.

**Q.** What about the T/C (dose: 25.0 mg/kg/injection, schedule: Q01DX009 (ip), vehicle: saline) of the same molecule?
**A.** The T/C was 133 % of control.

**Q.** And the T/C (dose: 50.0 mg/kg/injection, schedule: Q01DX009 (ip), vehicle: saline)?
**A.** The T/C was 147 % of control.

**Q.** What about the T/C (dose: 100.0 mg/kg/injection, schedule: Q01DX009 (ip), vehicle: saline) of the same molecule?
**A.** The T/C was 88 % of control.

**Q.** What about the survivor count (dose: 200.0 mg/kg/injection, schedule: Q01DX009 (ip), vehicle: saline) of the same molecule?
**A.** The survivor count was 6 of 6.
